Laboratory results as given in paper PMC3459986.
These are yes or no findings as the source states them, for the method shown. In cells and extracts the contact can be indirect. Some results given as binding are weak or reduced against the parent protein; the word gives no strength. For some assays here: Where a sequence is shown, tags or fusion partners need not be part of it.

By UniProt entry, the sequences of proteins in these tests, tags left out.
UniProt P51532: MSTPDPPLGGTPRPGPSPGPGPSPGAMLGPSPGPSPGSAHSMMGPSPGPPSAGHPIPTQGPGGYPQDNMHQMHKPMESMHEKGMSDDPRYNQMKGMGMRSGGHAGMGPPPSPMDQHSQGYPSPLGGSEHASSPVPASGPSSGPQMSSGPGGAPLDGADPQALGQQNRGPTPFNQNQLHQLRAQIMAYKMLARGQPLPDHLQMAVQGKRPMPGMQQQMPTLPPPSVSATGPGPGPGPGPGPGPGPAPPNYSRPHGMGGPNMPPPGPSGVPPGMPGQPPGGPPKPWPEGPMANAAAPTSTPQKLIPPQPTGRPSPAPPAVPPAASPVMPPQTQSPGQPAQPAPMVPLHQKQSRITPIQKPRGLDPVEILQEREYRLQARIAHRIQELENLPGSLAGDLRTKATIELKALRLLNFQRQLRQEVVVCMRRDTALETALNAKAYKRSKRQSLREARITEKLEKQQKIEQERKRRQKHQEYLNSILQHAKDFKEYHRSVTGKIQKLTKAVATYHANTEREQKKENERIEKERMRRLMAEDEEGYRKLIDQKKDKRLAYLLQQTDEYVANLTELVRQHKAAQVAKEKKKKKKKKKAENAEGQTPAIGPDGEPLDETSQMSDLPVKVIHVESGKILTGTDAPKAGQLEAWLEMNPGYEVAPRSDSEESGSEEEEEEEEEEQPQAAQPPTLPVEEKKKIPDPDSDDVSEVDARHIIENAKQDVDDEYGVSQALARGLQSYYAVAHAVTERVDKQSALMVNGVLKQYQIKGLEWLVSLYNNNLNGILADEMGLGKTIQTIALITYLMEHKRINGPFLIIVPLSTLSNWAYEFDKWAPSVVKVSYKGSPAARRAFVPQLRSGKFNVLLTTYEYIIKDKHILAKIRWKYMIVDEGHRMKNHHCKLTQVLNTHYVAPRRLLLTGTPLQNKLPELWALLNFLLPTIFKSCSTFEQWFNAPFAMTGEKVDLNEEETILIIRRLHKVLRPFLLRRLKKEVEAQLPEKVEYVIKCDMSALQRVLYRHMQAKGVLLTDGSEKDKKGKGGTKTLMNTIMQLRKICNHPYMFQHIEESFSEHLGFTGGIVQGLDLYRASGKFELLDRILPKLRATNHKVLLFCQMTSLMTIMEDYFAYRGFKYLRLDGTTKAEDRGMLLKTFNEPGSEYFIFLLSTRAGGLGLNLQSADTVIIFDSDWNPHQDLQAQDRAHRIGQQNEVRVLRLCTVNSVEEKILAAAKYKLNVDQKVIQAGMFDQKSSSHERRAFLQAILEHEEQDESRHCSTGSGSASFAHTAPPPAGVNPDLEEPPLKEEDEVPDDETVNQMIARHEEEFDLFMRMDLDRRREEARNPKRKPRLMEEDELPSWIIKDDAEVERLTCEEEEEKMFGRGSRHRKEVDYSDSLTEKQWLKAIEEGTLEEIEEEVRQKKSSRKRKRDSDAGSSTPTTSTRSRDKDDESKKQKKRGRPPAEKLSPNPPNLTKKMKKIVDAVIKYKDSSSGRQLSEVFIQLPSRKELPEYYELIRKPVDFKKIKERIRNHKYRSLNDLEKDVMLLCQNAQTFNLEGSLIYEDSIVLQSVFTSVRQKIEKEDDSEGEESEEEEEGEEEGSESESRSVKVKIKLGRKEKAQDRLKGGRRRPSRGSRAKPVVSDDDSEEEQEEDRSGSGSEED
UniProt O15550: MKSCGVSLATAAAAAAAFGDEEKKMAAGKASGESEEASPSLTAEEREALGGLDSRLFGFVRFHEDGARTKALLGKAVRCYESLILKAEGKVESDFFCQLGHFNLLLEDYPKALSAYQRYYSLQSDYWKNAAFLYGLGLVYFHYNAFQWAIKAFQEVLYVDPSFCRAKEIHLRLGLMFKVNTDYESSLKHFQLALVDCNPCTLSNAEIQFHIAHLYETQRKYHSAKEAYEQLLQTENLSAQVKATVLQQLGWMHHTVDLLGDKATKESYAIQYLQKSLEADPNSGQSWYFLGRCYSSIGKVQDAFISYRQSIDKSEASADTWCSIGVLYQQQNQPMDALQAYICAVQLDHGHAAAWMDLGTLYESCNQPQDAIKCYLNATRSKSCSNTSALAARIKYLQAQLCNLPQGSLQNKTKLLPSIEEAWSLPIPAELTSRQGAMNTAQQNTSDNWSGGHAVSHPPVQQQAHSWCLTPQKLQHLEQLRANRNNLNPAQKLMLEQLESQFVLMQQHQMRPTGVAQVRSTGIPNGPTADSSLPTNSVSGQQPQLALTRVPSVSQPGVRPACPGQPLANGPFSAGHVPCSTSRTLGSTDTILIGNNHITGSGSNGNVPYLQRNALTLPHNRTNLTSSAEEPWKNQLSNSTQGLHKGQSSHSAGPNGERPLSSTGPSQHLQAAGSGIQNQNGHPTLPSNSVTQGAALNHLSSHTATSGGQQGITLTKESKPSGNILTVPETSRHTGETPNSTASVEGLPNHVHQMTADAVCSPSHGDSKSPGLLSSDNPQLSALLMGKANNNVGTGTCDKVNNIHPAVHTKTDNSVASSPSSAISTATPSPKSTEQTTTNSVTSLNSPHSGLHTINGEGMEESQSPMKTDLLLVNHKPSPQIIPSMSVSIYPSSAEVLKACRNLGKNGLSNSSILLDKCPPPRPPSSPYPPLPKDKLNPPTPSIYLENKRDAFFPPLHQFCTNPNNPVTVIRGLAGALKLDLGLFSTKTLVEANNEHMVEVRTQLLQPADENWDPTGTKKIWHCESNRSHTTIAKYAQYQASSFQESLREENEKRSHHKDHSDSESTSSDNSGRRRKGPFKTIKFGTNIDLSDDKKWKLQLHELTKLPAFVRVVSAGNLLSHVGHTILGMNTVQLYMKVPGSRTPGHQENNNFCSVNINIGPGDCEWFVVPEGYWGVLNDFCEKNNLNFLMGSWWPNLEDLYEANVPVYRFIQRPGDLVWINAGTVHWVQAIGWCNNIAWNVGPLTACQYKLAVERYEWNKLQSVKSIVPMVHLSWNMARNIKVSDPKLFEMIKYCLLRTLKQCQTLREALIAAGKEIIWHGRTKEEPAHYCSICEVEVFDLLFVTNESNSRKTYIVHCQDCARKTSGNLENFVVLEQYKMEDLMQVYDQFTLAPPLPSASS
UniProt O14607: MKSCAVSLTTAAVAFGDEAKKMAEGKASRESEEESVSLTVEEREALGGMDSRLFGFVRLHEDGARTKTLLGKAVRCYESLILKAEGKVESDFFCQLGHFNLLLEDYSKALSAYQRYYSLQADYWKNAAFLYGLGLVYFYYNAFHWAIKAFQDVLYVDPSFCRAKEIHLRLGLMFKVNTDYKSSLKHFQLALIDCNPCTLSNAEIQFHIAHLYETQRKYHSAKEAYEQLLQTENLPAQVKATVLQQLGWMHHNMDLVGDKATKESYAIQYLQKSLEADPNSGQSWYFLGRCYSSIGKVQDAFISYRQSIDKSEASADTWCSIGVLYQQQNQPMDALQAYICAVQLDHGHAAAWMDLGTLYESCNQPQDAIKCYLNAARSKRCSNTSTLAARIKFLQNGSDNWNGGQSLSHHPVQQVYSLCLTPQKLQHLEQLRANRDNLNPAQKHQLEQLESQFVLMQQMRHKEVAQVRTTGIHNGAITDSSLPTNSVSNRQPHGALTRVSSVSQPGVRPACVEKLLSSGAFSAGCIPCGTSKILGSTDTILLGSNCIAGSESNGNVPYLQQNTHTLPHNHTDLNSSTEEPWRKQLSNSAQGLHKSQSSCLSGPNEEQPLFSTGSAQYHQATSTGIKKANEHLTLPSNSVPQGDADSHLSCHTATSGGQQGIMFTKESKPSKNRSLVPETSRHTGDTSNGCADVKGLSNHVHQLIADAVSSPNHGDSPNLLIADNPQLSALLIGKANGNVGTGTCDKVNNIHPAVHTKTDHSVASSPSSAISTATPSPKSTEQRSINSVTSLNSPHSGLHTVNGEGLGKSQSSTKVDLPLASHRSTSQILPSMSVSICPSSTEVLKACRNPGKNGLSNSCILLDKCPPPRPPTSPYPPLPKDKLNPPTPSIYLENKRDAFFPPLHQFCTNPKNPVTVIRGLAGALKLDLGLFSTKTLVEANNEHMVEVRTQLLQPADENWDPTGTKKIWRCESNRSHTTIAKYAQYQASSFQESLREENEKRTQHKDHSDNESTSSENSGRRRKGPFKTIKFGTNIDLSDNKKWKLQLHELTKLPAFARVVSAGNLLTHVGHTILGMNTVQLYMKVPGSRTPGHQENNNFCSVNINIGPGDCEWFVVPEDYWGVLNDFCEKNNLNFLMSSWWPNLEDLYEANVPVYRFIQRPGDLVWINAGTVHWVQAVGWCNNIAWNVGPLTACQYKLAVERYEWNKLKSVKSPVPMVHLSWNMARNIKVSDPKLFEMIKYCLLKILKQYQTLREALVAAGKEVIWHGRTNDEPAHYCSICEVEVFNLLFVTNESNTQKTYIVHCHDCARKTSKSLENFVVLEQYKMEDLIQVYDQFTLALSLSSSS
UniProt Q15291: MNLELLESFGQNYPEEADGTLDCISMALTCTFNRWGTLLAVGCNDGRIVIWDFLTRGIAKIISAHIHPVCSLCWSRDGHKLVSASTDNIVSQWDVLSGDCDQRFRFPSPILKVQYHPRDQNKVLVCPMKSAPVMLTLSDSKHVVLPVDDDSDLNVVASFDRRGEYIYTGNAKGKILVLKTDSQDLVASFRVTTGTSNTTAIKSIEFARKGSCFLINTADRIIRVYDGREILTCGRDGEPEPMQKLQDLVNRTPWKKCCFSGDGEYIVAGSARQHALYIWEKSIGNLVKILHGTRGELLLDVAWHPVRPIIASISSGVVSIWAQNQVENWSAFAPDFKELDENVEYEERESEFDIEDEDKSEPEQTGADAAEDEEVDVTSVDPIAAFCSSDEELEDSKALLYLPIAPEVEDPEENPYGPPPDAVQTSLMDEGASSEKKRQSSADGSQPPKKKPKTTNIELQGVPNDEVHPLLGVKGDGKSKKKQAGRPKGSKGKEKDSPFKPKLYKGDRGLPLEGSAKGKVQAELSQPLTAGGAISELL

How the values were obtained:
Flag tagged SRF = molecular target: T1, Flag tagged SRF (UniProt P11831); test: co-IP; HEK293T co-transfected with both tagged constructs; immunoprecipitation with 50 µl Flag beads (Sigma A2220) in buffer A from 500 µg lysate (1 mg for UTY-NKX2–5); blot with anti-HA or anti-Myc; Flag vector as negative control
T1 sequence: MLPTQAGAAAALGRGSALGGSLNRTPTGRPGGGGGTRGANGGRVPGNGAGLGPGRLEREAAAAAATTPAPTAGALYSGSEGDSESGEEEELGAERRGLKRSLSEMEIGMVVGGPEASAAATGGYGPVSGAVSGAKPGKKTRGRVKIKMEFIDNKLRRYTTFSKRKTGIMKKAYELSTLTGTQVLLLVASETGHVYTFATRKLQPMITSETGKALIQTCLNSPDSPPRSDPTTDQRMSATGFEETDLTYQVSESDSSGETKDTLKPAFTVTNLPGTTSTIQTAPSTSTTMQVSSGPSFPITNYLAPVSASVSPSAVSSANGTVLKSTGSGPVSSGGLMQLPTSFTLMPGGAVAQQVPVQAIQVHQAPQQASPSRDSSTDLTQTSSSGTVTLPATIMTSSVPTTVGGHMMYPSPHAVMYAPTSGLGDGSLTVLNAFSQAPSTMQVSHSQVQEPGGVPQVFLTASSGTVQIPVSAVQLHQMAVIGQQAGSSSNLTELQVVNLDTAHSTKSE

Flag tagged BRG1 = Flag tagged BRG1 (UniProt P51532); test: as above
Flag tagged TBX5 = molecular target: T2, Flag tagged TBX5 (UniProt Q99593); test: as above
T2 sequence: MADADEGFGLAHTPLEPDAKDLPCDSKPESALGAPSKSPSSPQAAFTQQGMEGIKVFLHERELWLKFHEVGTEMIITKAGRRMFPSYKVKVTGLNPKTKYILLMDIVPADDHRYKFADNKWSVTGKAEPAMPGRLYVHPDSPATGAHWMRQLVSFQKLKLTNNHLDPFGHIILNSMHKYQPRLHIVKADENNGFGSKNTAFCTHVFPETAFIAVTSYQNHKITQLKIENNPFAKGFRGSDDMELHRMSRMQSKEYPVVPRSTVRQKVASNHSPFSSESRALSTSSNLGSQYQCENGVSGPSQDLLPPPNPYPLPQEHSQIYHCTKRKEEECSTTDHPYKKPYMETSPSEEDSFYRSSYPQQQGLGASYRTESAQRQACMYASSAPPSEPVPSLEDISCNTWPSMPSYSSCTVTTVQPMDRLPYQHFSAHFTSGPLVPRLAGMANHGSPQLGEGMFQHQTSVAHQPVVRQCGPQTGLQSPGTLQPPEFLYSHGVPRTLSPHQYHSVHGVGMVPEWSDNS

Flag-Human UTX (human) = Flag-Human UTX (human) (UniProt O15550); test: co-IP; HEK293T transfected with the Flag-tagged construct; immunoprecipitation with 50 µl Flag beads (Sigma A2220) in buffer A from 500 µg lysate; endogenous RBBP5 detected with anti-RBBP5; Flag vector as negative control
Flag-Human UTY (human) = Flag-Human UTY (human) (UniProt O14607); test: as above

| binding (Flag tagged SRF) | binding (Flag tagged BRG1) | binding (Flag tagged TBX5) | binding (Flag-Human UTX (human)) | binding (Flag-Human UTY (human)) | Substance |
| --- | --- | --- | --- | --- | --- |
| binds | binds | binds | – | – | Myc-UTY (from UniProt O14607 1-1347) |
| – | – | – | binds | binds | RBBP5 (from UniProt Q15291 1-538) |
